The supplement of paper PMC3741180, “A Novel High Throughput Biochemical Assay to Evaluate the HuR Protein-RNA Complex Formation” (PLoS ONE, 2013)
Where a name gives a salt, the structure may show the parent alone. Some of the results follow. This data set is noisy: repeats of one test often differ as much as different tests do.

Chains of the proteins cited; added tags and fusions are not shown.
UniProt Q15717, whole entry: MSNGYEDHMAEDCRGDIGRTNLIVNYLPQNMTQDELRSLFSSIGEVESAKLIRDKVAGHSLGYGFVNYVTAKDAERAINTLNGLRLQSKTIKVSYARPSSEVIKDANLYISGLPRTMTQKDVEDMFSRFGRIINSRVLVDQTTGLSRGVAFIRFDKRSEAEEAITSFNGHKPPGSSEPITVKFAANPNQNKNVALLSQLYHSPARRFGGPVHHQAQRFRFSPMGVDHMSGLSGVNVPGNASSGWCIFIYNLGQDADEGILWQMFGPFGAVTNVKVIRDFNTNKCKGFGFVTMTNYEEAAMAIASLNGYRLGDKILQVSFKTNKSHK

Each molecule was assayed against HuR (ELAVL1) - TNFalpha ARE RNA complex (UniProt Q15717) (assay: AlphaScreen HuR-RNA complex signal Z-score relative to positive (Bi-TNF, DMSO) controls (Z-score (SD units of positive control)); higher = more complex signal). Settings: screen stage: primary screen; compound concentration: 25 nM.

SMILES | AlphaScreen HuR-RNA complex signal Z-score
COc1cc(OC)c2ccc(=O)oc2c1 | 0.152
CCCCC1C(=O)N(c2ccccc2)N(c2ccc(O)cc2)C1=O (stereo not drawn) | 0.0088
O=C(O)c1cc(=O)c(O)c2c(O)c(O)c(O)cc2c1 | 2.82
COc1cc2nc(N3CCN(C(=O)C4COc5ccccc5O4)CC3)nc(N)c2cc1OC (stereo not drawn) | 2.32
CC(=O)Nc1ccc(OC(=O)c2ccccc2O)cc1 | 1.02
COC(=O)C[C@H]1C2(C)CC34OC5(C)O[C@@]6([C@H](OC(C)=O)C(OC(C)=O)[C@]7(C)C(/C(=C(/O)C(C)C)C(=O)O[C@H]7c7ccoc7)[C@@]6(O5)[C@H](OC(C)=O)[C@@]3(O)C2OC(=O)C(C)C)[C@]14C (stereo partly drawn) | 0.872
CC(C)(CO)[C@@H](O)C(=O)NCCC(=O)O [PANTOTHENIC ACID(d) Na salt] | 5.41
Cc1cc(C(C)(C)C)cc(C)c1CC1=NCCN1 | -1.88
CCN(CCCCOC(=O)c1ccc(OC)c(OC)c1)C(C)Cc1ccc(OC)cc1 (stereo not drawn) | 0.906
CC(=O)O[C@@H]1CC(=O)[C@@]2(C)C(CC(=O)[C@]3(C)C2CC[C@@]2(C)[C@H](c4ccoc4)OC(=O)C4OC423)C1(C)C (stereo partly drawn) | -1
CCOC(=O)c1c(C)cc(OC)cc1O | 2.15
CCN(CC)CCOCCOC(=O)C1(c2ccccc2)CCCC1 | 0.157
O[C@H]1[C@H](O)[C@@H](O)C2OC[C@H]1O2 | 0.0512
CCN(CC)CCNC(=O)c1ccc(N)cc1 | 8.11
NC[C@H](O)c1ccc(O)c(O)c1 | 4.95
O=C(Oc1cc(O)cc2c1C[C@@H](OC(=O)c1cc(O)c(O)c(O)c1)[C@@H](c1cc(O)c(O)c(O)c1)O2)c1cc(O)c(O)c(O)c1 | 0.892
CCCCCCOc1ccccc1C(N)=O | 1.88
CCN(CC)[N+]([O-])=NO | -0.792
O=C(O)C1=C(CSc2nnnn2CS(=O)(=O)O)CS[C@@H]2[C@H](NC(=O)[C@H](O)c3ccccc3)C(=O)N12 | 1.11
CC(C)CC(NC(=O)[C@H](C)N)C(=O)O (mixture of isomers) | 1.18
COc1cc2ccc(=O)oc2c(O)c1O | 1.74
Nc1ccc(S(=O)(=O)Nc2nccs2)cc1 | 23.8
COC(=O)C(O)c1ccccc1 (stereo not drawn) | 0.686
O=C1c2ccccc2C(=O)c2c(O)c(O)cc(O)c21 | 1.7
Cc1ccc(-c2cc(C(F)(F)F)nn2-c2ccc(S(N)(=O)=O)cc2)cc1 | -0.261
CC(C)[N+]1(C)[C@@H]2CC[C@H]1C[C@@H](OC(=O)C(CO)c1ccccc1)C2 (stereo partly drawn) | -5.78
C[C@@H]1CCC[C@H](C)N1NC(=O)c1ccc(Cl)c(S(N)(=O)=O)c1 | 1.2
CN[C@H]1CC[C@@H](c2ccc(Cl)c(Cl)c2)c2ccccc21 | -1.58

Part of the list above in a different format:
NC[C@H](O)c1ccc(O)c(O)c1
  AlphaScreen HuR-RNA complex signal Z-score: 4.95
O=C(Oc1cc(O)cc2c1C[C@@H](OC(=O)c1cc(O)c(O)c(O)c1)[C@@H](c1cc(O)c(O)c(O)c1)O2)c1cc(O)c(O)c(O)c1
  AlphaScreen HuR-RNA complex signal Z-score: 0.892
